# From PubChem BioAssay AID212 (DTP/NCI, 2004)
# The list shows only some results of the screen, not a fair sample: it gathers tests that were run many times, whatever their T/C, doses with no T/C, and many T/C values between a quarter and a half above the control. Other doses and runs of a compound stand elsewhere. T/C gives the treated animals as a percentage of the vehicle group. Schedules are NCI's codes, read here as Q, the interval in days (D) or hours (H), X, the number of doses. Some T/C values are followed by the survivors on the day toxicity was checked, most often the fifth; without a count, all were alive then. Some doses were run more than once; the values are given in rising order. Some doses have a count of surviving animals in place of a T/C: the source holds a T/C of zero for them, seemingly a mark for toxic or unscored doses. Survivors were counted at the toxicity check, usually on the fifth day, unless a day is given; later deaths do not show. For survival time, the PubChem record calls one and a half times the control and up active, and a quarter to a half above the control has no call in these data; cut-offs in other NCI protocols can differ.
# System: BDF1 mice, colon carcinoma 38 sc, T/C %
# Assay: NCI In Vivo Anticancer Drug Screen. Data for tumor model Colon Carcinoma 38 (subcutaneous) in B6D2F1 (BDF1) mice
# In short: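 T/C readout: treated group (T) measurement over vehicle control group (C) measurement. Endpoint is survival or tumor size in mice bearing a transplanted tumor.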
smiles,measurement,setting,value
O=NN(CCCl)C(=O)NCCCl,T/C,"T/C endpoint: median tumor weight (est.), dose: 1.0 mg/kg/injection, schedule: Q07DX003 (ip), vehicle: saline with Tween-80, evaluated on day 20, higher T/C = larger tumour",132 % of control
same,T/C,"T/C endpoint: median tumor weight (est.), dose: 4.0 mg/kg/injection, schedule: Q07DX002 (ip), vehicle: saline with Tween-80, evaluated on day 20, higher T/C = larger tumour",141 % of control
same,survivor count,"T/C endpoint: median tumor weight (est.), dose: 32.0 mg/kg/injection, schedule: Q07DX002 (ip), vehicle: saline with Tween-80, higher T/C = larger tumour",5 of 10 on day 20
same,survivor count,"T/C endpoint: median tumor weight (est.), dose: 40.0 mg/kg/injection, schedule: Q07DX002 (ip), vehicle: saline with Tween-80, higher T/C = larger tumour",4 of 10 on day 20
same,survivor count,"T/C endpoint: median tumor weight (est.), dose: 48.0 mg/kg/injection, schedule: Q07DX002 (ip), vehicle: saline + alcohol, higher T/C = larger tumour",0 of 10 on day 20
same,survivor count,"T/C endpoint: median tumor weight (est.), dose: 64.0 mg/kg/injection, schedule: Q07DX002 (ip), vehicle: saline with Tween-80, higher T/C = larger tumour",0 of 10 on day 20
same,survivor count,"T/C endpoint: median tumor weight (est.), dose: 80.0 mg/kg/injection, schedule: Q07DX002 (ip), vehicle: saline with Tween-80, higher T/C = larger tumour",0 of 10 on day 20
Nc1cc(Cl)c2[nH]cnc2n1,survivor count,"T/C endpoint: median tumor weight (est.), dose: 400.0 mg/kg/injection, schedule: Q07DX002 (ip), vehicle: distilled water + Tween-80, higher T/C = larger tumour",2 of 10 on day 20 and 6 of 10 on day 20
same,survivor count,"T/C endpoint: median tumor weight (est.), dose: 800.0 mg/kg/injection, schedule: Q07DX002 (ip), vehicle: distilled water + Tween-80, higher T/C = larger tumour",2 of 10 on day 20
same,survivor count,"T/C endpoint: median tumor weight (est.), dose: 1600.0 mg/kg/injection, schedule: Q07DX002 (ip), vehicle: distilled water + Tween-80, higher T/C = larger tumour",0 of 10 on day 20
CCOC(=O)CNC(=O)CCCCSc1ncnc2nc[nH]c12,survivor count,"T/C endpoint: median tumor weight (est.), dose: 3200.0 mg/kg/injection, schedule: Q07DX003 (ip), vehicle: saline with Tween-80, higher T/C = larger tumour",3 of 10
Cc1cc(NCCCCCCNc2cc(C)nc3cc(N(C)C)ccc23)c2ccc(N(C)C)cc2n1,survivor count,"T/C endpoint: median tumor weight (est.), dose: 200.0 mg/kg/injection, schedule: Q07DX002 (ip), vehicle: distilled water + Tween-80 + alcohol, higher T/C = larger tumour",0 of 10 on day 20
Cc1cc2nc3c(=O)[nH]c(=O)nc-3n(CC(O)C(O)C(O)C(O)CO)c2cc1C (stereo not drawn),survivor count,"T/C endpoint: median tumor weight (est.), dose: 100.0 mg/kg/injection, schedule: Q07DX002 (ip), vehicle: suspension in saline, higher T/C = larger tumour",6 of 10 on day 20
same,survivor count,"T/C endpoint: median tumor weight (est.), dose: 1600.0 mg/kg/injection, schedule: Q07DX002 (ip), vehicle: suspension in saline, higher T/C = larger tumour",6 of 10 on day 20
NC1=NC(O)C=C1 (stereo not drawn),survivor count,"T/C endpoint: median tumor weight (est.), dose: 120.0 mg/kg/injection, schedule: Q07DX002 (ip), vehicle: saline, higher T/C = larger tumour",3 of 10 on day 20
CCC(C(=O)O)C(=O)O.[NH-]CC1CCCC[N-]1.[Pt+2],survivor count,"T/C endpoint: median tumor weight (est.), dose: 400.0 mg/kg/injection, schedule: Q07DX002 (ip), vehicle: saline, higher T/C = larger tumour",5 of 10 on day 20
same,survivor count,"T/C endpoint: median tumor weight (est.), dose: 800.0 mg/kg/injection, schedule: Q07DX002 (ip), vehicle: saline, higher T/C = larger tumour",0 of 10 on day 20
COc1cc(C)c(C2NC(=O)c3ccccc3N2)cc1C (stereo not drawn),T/C,"T/C endpoint: median tumor weight (est.), dose: 200.0 mg/kg/injection, schedule: Q07DX002 (ip), vehicle: Klucel (hydroxypropylcellulose) (HPC), evaluated on day 20, higher T/C = larger tumour",146 % of control
Nc1cc2[nH]cnc2c(=O)[nH]1,T/C,"T/C endpoint: median tumor weight (est.), dose: 50.0 mg/kg/injection, schedule: Q07DX002 (ip), vehicle: saline, evaluated on day 20, higher T/C = larger tumour",131 % of control
[Cl][Sn]([c]1ccccc1)[c]1ccccc1,T/C,"T/C endpoint: median tumor weight (est.), dose: 0.78 mg/kg/injection, schedule: Q07DX002 (ip), vehicle: saline, evaluated on day 20, higher T/C = larger tumour",125 % of control
same,T/C,"T/C endpoint: median tumor weight (est.), dose: 1.56 mg/kg/injection, schedule: Q07DX002 (ip), vehicle: saline, evaluated on day 20, higher T/C = larger tumour",128 % of control
same,T/C,"T/C endpoint: median tumor weight (est.), dose: 3.12 mg/kg/injection, schedule: Q07DX002 (ip), vehicle: saline, evaluated on day 20, higher T/C = larger tumour",133 % of control
same,survivor count,"T/C endpoint: median tumor weight (est.), dose: 50.0 mg/kg/injection, schedule: Q09DX002 (ip), vehicle: saline, higher T/C = larger tumour",2 of 10 on day 20
same,survivor count,"T/C endpoint: median tumor weight (est.), dose: 100.0 mg/kg/injection, schedule: Q09DX002 (ip), vehicle: saline, higher T/C = larger tumour",0 of 10 on day 20
same,survivor count,"T/C endpoint: median tumor weight (est.), dose: 200.0 mg/kg/injection, schedule: Q09DX002 (ip), vehicle: saline, higher T/C = larger tumour",0 of 10 on day 20
same,survivor count,"T/C endpoint: median tumor weight (est.), dose: 400.0 mg/kg/injection, schedule: Q09DX002 (ip), vehicle: saline, higher T/C = larger tumour",0 of 10 on day 20
O=C(O)Cc1cccc2c(=O)c(-c3ccccc3)c(-c3ccccc3)oc12,survivor count,"T/C endpoint: median tumor weight (est.), dose: 400.0 mg/kg/injection, schedule: Q07DX002 (ip), vehicle: Klucel (hydroxypropylcellulose) (HPC), higher T/C = larger tumour",3 of 10 on day 20 and 6 of 10 on day 20
C1OC1C1CO1 (stereo not drawn),survivor count,"T/C endpoint: median tumor weight (est.), dose: 40.0 mg/kg/injection, schedule: Q07DX002 (ip), vehicle: saline, higher T/C = larger tumour",0 of 10 on day 20
same,survivor count,"T/C endpoint: median tumor weight (est.), dose: 80.0 mg/kg/injection, schedule: Q07DX002 (ip), vehicle: saline, higher T/C = larger tumour",0 of 10 on day 20 and 3 of 10 on day 20
CCCCn1cnc2c(=S)nc[nH]c21,survivor count,"T/C endpoint: median tumor weight (est.), dose: 800.0 mg/kg/injection, schedule: Q07DX002 (ip), vehicle: saline with Tween-80, higher T/C = larger tumour",0 of 10 on day 20 and 1 of 9 on day 20
COc1cccc2c1C(=O)c1c(O)c3c(c(O)c1C2=O)CC(O)(/C(C)=N/NC(=O)CCC(=O)N/N=C(\C)C1(O)Cc2c(O)c4c(c(O)c2C(OC2CC(N)C(O)C(C)O2)C1)C(=O)c1c(OC)cccc1C4=O)CC3OC1CC(N)C(O)C(C)O1 (stereo not drawn),T/C,"T/C endpoint: median survival time, dose: 45.0 mg/kg/injection, schedule: Q07DX003 (sc), vehicle: water, higher T/C = longer survival",148 % of control
same,survivor count,"T/C endpoint: median tumor weight (est.), dose: 48.0 mg/kg/injection, schedule: Q07DX002 (ip), vehicle: water, higher T/C = larger tumour",1 of 10 on day 20
same,survivor count,"T/C endpoint: median tumor weight (est.), dose: 64.0 mg/kg/injection, schedule: Q07DX002 (ip), vehicle: water, higher T/C = larger tumour",5 of 10 on day 20
same,survivor count,"T/C endpoint: median tumor weight (est.), dose: 128.0 mg/kg/injection, schedule: Q07DX002 (ip), vehicle: distilled water + Tween-80, higher T/C = larger tumour",2 of 10 on day 20
same,survivor count,"T/C endpoint: median tumor weight (est.), dose: 128.0 mg/kg/injection, schedule: Q07DX002 (ip), vehicle: water, higher T/C = larger tumour",1 of 10 on day 20
NS(=O)(=O)c1cc2c(cc1Cl)NC=NS2(=O)=O,T/C,"T/C endpoint: median tumor weight (est.), dose: 600.0 mg/kg/injection, schedule: Q07DX002 (ip), vehicle: Klucel (hydroxypropylcellulose) (HPC), evaluated on day 20, higher T/C = larger tumour",126 % of control
Nc1nc(=S)c2[nH]cnc2[nH]1,survivor count,"T/C endpoint: median tumor weight (est.), dose: 32.0 mg/kg/injection, schedule: Q07DX002 (ip), vehicle: saline, higher T/C = larger tumour",6 of 10
same,survivor count,"T/C endpoint: median tumor weight (est.), dose: 32.0 mg/kg/injection, schedule: Q07DX003 (ip), vehicle: saline, higher T/C = larger tumour",3 of 10
Cc1c(N)nc(C(CC(N)=O)NCC(N)C(N)=O)nc1C(=O)NC(C(=O)NC(C)C(O)C(C)C(=O)NC(C(=O)NCCc1nc(-c2nc(C(=O)NCCCNCCCc3ccccn3)cs2)cs1)C(C)O)C(OC1OC(CO)C(O)C(O)C1OC1OC(CO)C(O)C(OC(N)=O)C1O)c1cnc[nH]1 (stereo not drawn),survivor count,"T/C endpoint: median tumor weight (est.), dose: 200.0 mg/kg/injection, schedule: Q07DX002 (ip), vehicle: saline, higher T/C = larger tumour",0 of 10 on day 20
Nc1ncn(C2OC(CO)C(O)C2O)c(=O)n1 (stereo not drawn),T/C,"T/C endpoint: median tumor weight (est.), dose: 1.0 mg/kg/injection, schedule: Q07DX003 (ip), vehicle: saline, evaluated on day 20, higher T/C = larger tumour","38, 68, 75, 90 [9 of 10 alive], 96, 120, 159 % of control [9 of 10 alive]"
same,T/C,"T/C endpoint: median tumor weight (est.), dose: 2.0 mg/kg/injection, schedule: Q07DX002 (ip), vehicle: saline, evaluated on day 20, higher T/C = larger tumour","96, 97, 101, 105 % of control"
same,T/C,"T/C endpoint: median tumor weight (est.), dose: 2.0 mg/kg/injection, schedule: Q07DX003 (ip), vehicle: saline, evaluated on day 20, higher T/C = larger tumour","50, 67, 81, 82, 84, 99, 251 % of control"
same,T/C,"T/C endpoint: median tumor weight (est.), dose: 4.0 mg/kg/injection, schedule: Q07DX002 (ip), vehicle: saline, evaluated on day 20, higher T/C = larger tumour","64, 74, 75, 121, 131 % of control"
same,T/C,"T/C endpoint: median tumor weight (est.), dose: 4.0 mg/kg/injection, schedule: Q07DX003 (ip), vehicle: saline, evaluated on day 20, higher T/C = larger tumour","37, 50, 52, 55, 67, 70, 111 % of control"
same,T/C,"T/C endpoint: median tumor weight (est.), dose: 8.0 mg/kg/injection, schedule: Q07DX002 (ip), vehicle: saline, evaluated on day 20, higher T/C = larger tumour","52, 57, 72 [9 of 10 alive], 86, 97 % of control"
same,T/C,"T/C endpoint: median tumor weight (est.), dose: 8.0 mg/kg/injection, schedule: Q07DX003 (ip), vehicle: saline, evaluated on day 20, higher T/C = larger tumour","23 [8 of 10 alive], 34, 41, 43, 46 [9 of 10 alive], 57, 106 % of control"
same,T/C,"T/C endpoint: median tumor weight (est.), dose: 16.0 mg/kg/injection, schedule: Q07DX002 (ip), vehicle: saline, evaluated on day 20, higher T/C = larger tumour","27 [9 of 10 alive], 35, 40, 62, 75 % of control"
same,T/C,"T/C endpoint: median tumor weight (est.), dose: 16.0 mg/kg/injection, schedule: Q07DX003 (ip), vehicle: saline, evaluated on day 20, higher T/C = larger tumour","19, 22, 24, 34, 37, 44 % of control"
C/C(=N/NC(N)=S)c1ccc2ccccc2c1,survivor count,"T/C endpoint: median tumor weight (est.), dose: 200.0 mg/kg/injection, schedule: Q07DX002 (ip), vehicle: saline with Tween-80, higher T/C = larger tumour",2 of 10 on day 20
CN(C)S(=O)(=O)CCNC(=O)N(CCCl)N=O,survivor count,"T/C endpoint: median tumor weight (est.), dose: 30.0 mg/kg/injection, schedule: Q07DX002 (oral), vehicle: saline with Tween-80, higher T/C = larger tumour",2 of 10 on day 20
same,survivor count,"T/C endpoint: median tumor weight (est.), dose: 41.67 mg/kg/injection, schedule: Q07DX002 (oral), vehicle: saline, higher T/C = larger tumour",4 of 10 on day 20
CS(=O)(=O)OCCCNCCCOS(C)(=O)=O,survivor count,"T/C endpoint: median tumor weight (est.), dose: 150.0 mg/kg/injection, schedule: Q07DX003 (ip), vehicle: saline, higher T/C = larger tumour",4 of 10
C[Si](C)(C)O/C=C1\CCCCC1=O,survivor count,"T/C endpoint: median tumor weight (est.), dose: 400.0 mg/kg/injection, schedule: Q07DX002 (ip), vehicle: saline with Tween-80, higher T/C = larger tumour",2 of 10 on day 20 and 5 of 10 on day 20
